From article PMC5856744 come the findings set out here.

Chains of the proteins cited; added tags and fusions are not shown. Lines headed by an entry give the natural chain unless they say otherwise; changes in a name come on top.
UniProt P09382: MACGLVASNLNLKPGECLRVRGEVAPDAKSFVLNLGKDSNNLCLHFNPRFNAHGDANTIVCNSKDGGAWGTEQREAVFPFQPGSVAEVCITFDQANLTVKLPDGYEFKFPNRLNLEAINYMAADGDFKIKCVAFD

Results are given in words; binding and its absence hold for the method and conditions named. Binding seen in cells or lysates may run through a third protein. Some binding calls cover weakened binding; strength is not graded here. For some assays here: Tags and fused reporters may be left off the sequences shown.

One test addresses Flag-tagged FOXP3 (UniProt Q9BZS1). As to the kind of experiment: co-IP; HEK293T cells co-transfected with Flag-tagged FOXP3 (full-length, truncated or ΔFKH) and Gal-1; immunoprecipitation with anti-Flag antibody, western blot with anti-Gal-1.
For test [1], the target named is T1, Flag-tagged truncated FOXP3 F301-431 (UniProt Q9BZS1).
T1 sequence: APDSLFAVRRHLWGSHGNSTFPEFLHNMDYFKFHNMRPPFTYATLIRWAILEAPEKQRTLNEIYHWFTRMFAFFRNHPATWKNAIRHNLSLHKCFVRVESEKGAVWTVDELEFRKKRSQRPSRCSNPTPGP
Described as above.

In a further test the target is Galectin-1 (UniProt P09382). As to the kind of experiment: co-IP; HEK293T cells co-transfected with Flag-tagged FOXP3 and Gal-1; immunoprecipitation with anti-Gal-1 antibody, western blot with anti-Flag. (In general: A western blot detects proteins with antibodies after separation by electrophoresis.)
Test [2] has as its target endogenous FOXP3 (human (endogenous in MCF-7 and T47D)) (UniProt Q9BZS1). Briefly: co-IP; endogenous proteins in MCF-7 and T47D cells; immunoprecipitation with anti-FOXP3 antibody, IgG as negative control, western blot with anti-Gal-1.
A further test addresses FOXP3-eGFP (UniProt Q9BZS1). As to the kind of experiment: FRET or BRET; FRET microscopy (Nikon A1R) of live T47D cells with FOXP3-eGFP (donor) and Gal-1-dsRed (acceptor), 48 h, 37 °C; FRET efficiency by NIS-Elements. (Bioluminescence resonance energy transfer reports proximity on the nanometre scale.)

Consider Galectin-1 (from UniProt P09382 3-135), for which the binding entry (in the test with Flag-tagged FOXP3; in test [1]) was “binds” throughout. As to “Flag-tagged FOXP3 (from UniProt Q9BZS1 1-431)”, the binding result with Galectin-1 was “binds”. “endogenous Gal-1 (from UniProt P09382 1-135)”: the binding result in test [2] is “binds”. For the substance Gal-1-dsRed (from UniProt P09382 3-135), the binding result with FOXP3-eGFP is “binds”.
